From paper PMC6399291
These are yes or no findings as the source states them, for the method shown. In cells and extracts the contact can be indirect. Some results given as binding are weak or reduced against the parent protein; the word gives no strength.

Protein sequences, listed by entry. Tags and fused reporters are not part of them. Lines headed by an entry give the natural chain unless they say otherwise; changes in a name come on top. Chains listed by the source or under a name are the forms on record and can include a tag or linker.
UniProt P31946: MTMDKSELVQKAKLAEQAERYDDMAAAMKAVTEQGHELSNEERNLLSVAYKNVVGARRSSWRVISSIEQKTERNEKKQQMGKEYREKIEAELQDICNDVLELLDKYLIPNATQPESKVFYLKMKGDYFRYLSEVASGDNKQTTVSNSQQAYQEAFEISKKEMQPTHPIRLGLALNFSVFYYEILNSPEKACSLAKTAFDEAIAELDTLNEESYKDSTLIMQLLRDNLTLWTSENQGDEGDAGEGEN
UniProt P11802: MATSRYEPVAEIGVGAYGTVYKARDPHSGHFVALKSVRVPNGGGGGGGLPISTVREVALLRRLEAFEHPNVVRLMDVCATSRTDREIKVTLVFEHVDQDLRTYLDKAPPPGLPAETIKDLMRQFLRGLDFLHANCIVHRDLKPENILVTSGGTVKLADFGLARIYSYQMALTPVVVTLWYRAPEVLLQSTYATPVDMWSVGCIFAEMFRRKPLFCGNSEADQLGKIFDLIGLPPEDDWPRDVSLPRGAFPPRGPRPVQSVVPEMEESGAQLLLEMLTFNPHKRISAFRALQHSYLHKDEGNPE
PIKE-A (endogenous, LN229) (Q99490-2, form named): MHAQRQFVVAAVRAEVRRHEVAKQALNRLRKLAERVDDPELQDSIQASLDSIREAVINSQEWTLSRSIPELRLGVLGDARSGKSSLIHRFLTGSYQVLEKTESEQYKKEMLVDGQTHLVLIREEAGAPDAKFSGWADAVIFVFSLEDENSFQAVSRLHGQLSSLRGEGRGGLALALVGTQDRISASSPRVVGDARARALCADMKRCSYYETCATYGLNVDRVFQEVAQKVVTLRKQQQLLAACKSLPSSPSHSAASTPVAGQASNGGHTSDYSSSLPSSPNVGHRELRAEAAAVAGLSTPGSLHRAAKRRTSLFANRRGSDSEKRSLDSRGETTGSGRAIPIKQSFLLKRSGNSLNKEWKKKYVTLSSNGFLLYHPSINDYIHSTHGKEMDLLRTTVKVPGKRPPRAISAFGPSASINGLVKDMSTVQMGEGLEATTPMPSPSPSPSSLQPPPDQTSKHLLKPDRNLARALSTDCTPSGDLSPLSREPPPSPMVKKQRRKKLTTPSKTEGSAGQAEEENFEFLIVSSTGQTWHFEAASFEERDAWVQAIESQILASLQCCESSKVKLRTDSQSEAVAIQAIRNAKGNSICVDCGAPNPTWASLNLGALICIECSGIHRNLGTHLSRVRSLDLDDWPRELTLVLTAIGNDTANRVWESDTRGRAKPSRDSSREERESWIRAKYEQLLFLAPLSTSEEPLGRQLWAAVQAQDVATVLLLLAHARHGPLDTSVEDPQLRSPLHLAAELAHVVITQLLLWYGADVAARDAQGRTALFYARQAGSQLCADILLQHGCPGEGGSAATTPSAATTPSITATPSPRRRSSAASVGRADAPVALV
myc-PIKE-A S351/377D (Q99490-2, form named): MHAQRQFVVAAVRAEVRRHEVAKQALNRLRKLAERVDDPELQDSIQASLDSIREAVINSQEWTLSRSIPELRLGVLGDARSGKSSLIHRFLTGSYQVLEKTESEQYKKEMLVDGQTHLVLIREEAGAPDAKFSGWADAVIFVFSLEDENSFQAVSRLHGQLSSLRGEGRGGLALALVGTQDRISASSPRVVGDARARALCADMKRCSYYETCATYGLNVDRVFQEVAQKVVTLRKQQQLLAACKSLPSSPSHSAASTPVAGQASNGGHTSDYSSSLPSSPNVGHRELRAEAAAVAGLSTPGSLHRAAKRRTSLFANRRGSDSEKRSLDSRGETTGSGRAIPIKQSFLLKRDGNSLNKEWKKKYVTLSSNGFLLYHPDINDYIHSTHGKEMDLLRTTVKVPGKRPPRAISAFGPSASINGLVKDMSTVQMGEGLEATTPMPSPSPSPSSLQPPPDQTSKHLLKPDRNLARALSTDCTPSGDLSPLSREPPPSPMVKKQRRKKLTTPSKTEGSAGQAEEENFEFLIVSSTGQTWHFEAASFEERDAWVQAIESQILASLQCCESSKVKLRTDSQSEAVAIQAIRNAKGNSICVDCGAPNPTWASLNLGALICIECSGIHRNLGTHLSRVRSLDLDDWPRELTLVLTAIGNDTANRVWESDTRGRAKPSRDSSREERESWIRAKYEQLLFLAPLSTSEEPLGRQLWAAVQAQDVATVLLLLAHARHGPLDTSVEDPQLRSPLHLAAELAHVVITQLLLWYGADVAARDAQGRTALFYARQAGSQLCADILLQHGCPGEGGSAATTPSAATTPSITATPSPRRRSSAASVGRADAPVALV
myc-PIKE-A S351/377A (Q99490-2, form named): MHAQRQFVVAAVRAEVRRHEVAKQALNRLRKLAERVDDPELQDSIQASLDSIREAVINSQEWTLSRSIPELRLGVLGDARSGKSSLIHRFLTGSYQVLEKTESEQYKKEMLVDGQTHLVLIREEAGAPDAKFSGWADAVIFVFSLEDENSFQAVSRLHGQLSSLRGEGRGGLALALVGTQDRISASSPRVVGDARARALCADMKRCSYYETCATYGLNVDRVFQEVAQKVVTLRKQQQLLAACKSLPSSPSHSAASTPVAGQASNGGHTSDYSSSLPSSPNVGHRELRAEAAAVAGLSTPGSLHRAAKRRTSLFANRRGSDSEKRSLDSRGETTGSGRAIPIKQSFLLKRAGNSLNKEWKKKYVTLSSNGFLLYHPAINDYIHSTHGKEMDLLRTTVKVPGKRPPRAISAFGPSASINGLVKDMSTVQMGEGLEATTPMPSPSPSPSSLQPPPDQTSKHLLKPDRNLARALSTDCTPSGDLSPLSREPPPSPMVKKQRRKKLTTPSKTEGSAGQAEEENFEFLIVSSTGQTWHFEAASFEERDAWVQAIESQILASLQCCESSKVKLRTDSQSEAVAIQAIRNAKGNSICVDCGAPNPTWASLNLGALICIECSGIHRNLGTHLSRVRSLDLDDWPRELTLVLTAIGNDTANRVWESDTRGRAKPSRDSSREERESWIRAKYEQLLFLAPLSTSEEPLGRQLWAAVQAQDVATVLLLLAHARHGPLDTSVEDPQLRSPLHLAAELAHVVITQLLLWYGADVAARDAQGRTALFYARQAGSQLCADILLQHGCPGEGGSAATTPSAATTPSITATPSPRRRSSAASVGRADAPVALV

Legend:
GFP-14-3-3β [1] = molecular target: GFP-14-3-3β (UniProt P31946); experiment: co-IP; HEK293 co-transfected with GST-PIKE-A and GFP-14-3-3β; untreated, serum starved 12 h or hypoxia (1% O2) 2 or 12 h; which partner was precipitated is not stated
GFP-14-3-3β [2] = molecular target: GFP-14-3-3β (UniProt P31946); experiment: co-IP; HEK293 co-transfected with myc-PIKE-A WT or mutants and GFP-14-3-3β; GFP-14-3-3β immunoprecipitated, blot with anti-myc
[3] = molecular target: CDK4 (endogenous, LN229) (human (endogenous in LN229)) (UniProt P11802); experiment: co-IP; endogenous proteins, nuclear fraction of LN229 cells, with or without 12 h serum starvation (also AICAR, Metformin, A23187 or H2O2); IP with anti-CDK4, blot with anti-PIKE-A
[4] = molecular target: CDK4 (endogenous, LN229) (human (endogenous in LN229)) (UniProt P11802); experiment: co-IP; endogenous proteins, LN229 whole cell lysate, with or without 12 h serum starvation (also AICAR, Metformin, A23187 or H2O2); IP with anti-CDK4, blot with anti-PIKE-A

binding (GFP-14-3-3β [2])	Substance	further results
	GST-PIKE-A WT (from UniProt Q99490-2 1-836)	binding (GFP-14-3-3β [1]): binds
binds	myc-PIKE-A WT (from UniProt Q99490-2 1-836)	
	PIKE-A (endogenous, LN229) (from UniProt Q99490-2 1-836)	binding [3]: binds; binding [4]: binds
binds	myc-PIKE-A S351/377D (from UniProt Q99490-2 1-836)	
binds	myc-PIKE-A S351/377A (from UniProt Q99490-2 1-836)	
